Assay results as given in publication PMC8869728 (Biomedicines, 2022).

Legend:
Format in all cases: in vivo
Conditions in all cases: vitisin A or B 40 mg/kg oral; donepezil 5 mg/kg; scopolamine-treated mice
[1] = tested on: malondialdehyde (MDA) levels; assay: MDA levels in mouse brain tissue extracts (TBA)
Procedure: (§1) The isolated whole brain tissue was weighted, and powdered in liquid nitrogen using a mortar and pestle. The proteins in the tissue powders were suspended and extracted by 1 mL, one-fold-diluted PBS. […] The protein contents in tissue extracts were determined by the BCA^TM protein assay kit (Thermo Fisher Scientific Inc.), and BSA was used to plot the standard curve. The AChE activity in the brain extracts was determined following the previous report. […] The malondialdehyde (MDA) levels in the brain extracts was determined using acidic TBA. The 320 μL of 0.5% TBA in 10% trichloroacetic acid was premixed with 80 μL of 5-fold diluted tissue extracts, and then heated at boiling water for 20 min, and then centrifuged at 10,000 rpm, 4 °C for 30 min. […] For determining protein expressions of BDNF and its receptor, TrkB, among brain extracts of the treated mice, the immune stains were performed onto polyvinylidene difluoride (PVDF) membranes (Millipore, Bedford, MA, USA). […] The western chemiluminescent HRP substrate kit (WBKL S0050, Millipore) was used to stain the target protein expressions, which the image system [Syngene GeneGnome5 imaging system (Cambridge, UK)] was used to quantify the image levels of target protein in the immune blots.

[2] = tested on: brain-derived neurotrophic factor (BDNF); assay: BDNF protein expression in mouse brain tissue extracts (immune blot)
Procedure: as §1

[3] = tested on: tropomyosin receptor kinase B (TrkB); assay: TrkB protein expression in mouse brain tissue extracts (immune blot)
Procedure: as §1

Question: Which “MDA levels in brain tissue extracts compared to the control” value [1] does the source give for COc1cc2c(cc1OC)C(=O)C(CC1CCN(Cc3ccccc3)CC1)C2 (stereo not drawn) [donepezil, reference compound] here?
Answer: The value was “lower increase in AChE and MDA levels”.

Question: And the “BDNF protein expression in brain tissue extracts” value [2]?
Answer: The value was “recover both protein expressions of the reduced BDNF and TrkB”.

Question: And the “TrkB protein expression in brain tissue extracts” value [3]?
Answer: Its value is “recover both protein expressions of the reduced BDNF and TrkB”.
